# Where cells or extracts were used, other partners may take part. Protein sequences can lack the tags named with them.
# Biological target: T1, Serum response factor (SRF) (UniProt P11831)
# T1 sequence (looked up, limits assumed): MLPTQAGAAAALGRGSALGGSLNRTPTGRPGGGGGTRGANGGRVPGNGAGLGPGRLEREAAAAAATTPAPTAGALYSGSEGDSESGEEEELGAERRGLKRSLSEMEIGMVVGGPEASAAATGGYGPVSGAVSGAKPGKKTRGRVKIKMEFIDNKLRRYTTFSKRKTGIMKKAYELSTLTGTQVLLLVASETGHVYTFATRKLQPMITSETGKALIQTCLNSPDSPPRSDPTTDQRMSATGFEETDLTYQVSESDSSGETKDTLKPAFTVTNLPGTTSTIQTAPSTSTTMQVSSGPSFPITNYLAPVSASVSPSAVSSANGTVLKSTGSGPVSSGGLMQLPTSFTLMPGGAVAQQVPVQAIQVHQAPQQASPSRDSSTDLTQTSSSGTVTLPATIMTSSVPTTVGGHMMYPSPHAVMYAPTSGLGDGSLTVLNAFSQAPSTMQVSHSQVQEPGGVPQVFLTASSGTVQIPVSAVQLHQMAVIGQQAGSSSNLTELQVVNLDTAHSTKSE
# Test: EMSA
# Details: COS cell extract; 6% non-denaturing gel, 0.5xTBE; cold wild-type oligo competes, mutant cold competitor does not; protein in a lysate after overexpression; protein details: epitope-tagged, expressed in COS cells; label: Klenow-labeled
sequence,measurement,value
GGGCCTTGCCATATAAGGGCAGGA / GGTCCTGCCCTTATATGGCAAGGC [miR-143/145 CArG wild-type probe],binding result,binds

# Source: US20090226375
